# Assay results as given in PubChem BioAssay AID624305 (National Center for Advancing Translational Sciences (NCATS), 2012).
# Inconclusive results, whose numbers are uncertain, are shown with a selection of clear calls. Where the call is inconclusive, the potency comes from a doubtful curve fit. Calls of active or inactive are those of the source. Calls come from the whole dose curve; as a rule, active = well fitted activation curve with a large enough effect; inconclusive = small, poorly fitted or top-dose-only effect; inactive = no such curve, though single readings can be large or run the other way.
# Experiment: qHTS assay for re-activators of p53 using a Luc reporter: Hit Validation; note: nearly all actives have a fitted effect of over 75% in size; for activation: 0% is about no effect
# Conditions: p53-responsive luciferase reporter cells, luminescence, H1299 line expressing heat-sensitive Ala138Val p53; series mostly up to 46.1 µM; activation: at the top concentration
# In short: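 Hit confirmation with a 1:5 dilution series, at 37 deg C for 24 hrs, in H1299 cells co-expressing temperature-sensitive p53-A138V and p53-responsive luciferase. Nocodazole served as control; luminescence read after 10 min with detection reagent.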
# Potency is the fitted concentration of half-maximal effect.
SMILES,activation,Potency
O=C(NNc1c2ccccc2nc2ccccc12)c1ccc(O)cc1,inactive: -29.7%,–
COc1ccc([N+](=O)[O-])cc1NC(=O)CSCc1ccc(Br)cc1,inactive: -26%,–
CC(C)c1ccc(NC(=S)NN2CCOCC2)cc1,–,"inconclusive: 46.1 µM [activator, single point]"
Fc1ccccc1/C=C/c1ccc2ccccc2n1,–,active: 0.731 µM
CC(C)[C@H](NC(=O)c1ccc(Cl)cc1Cl)C(=O)NNc1cccc(C(=O)O)c1,–,"inconclusive: 18.4 µM [activator, partial curve, poor fit]"
CCC(=O)Nc1cccc(NC(=S)NC(=O)c2ccc(Cl)cc2)c1,–,"inconclusive: 5.8 µM [activator, single point]"
Cc1ccc(NC(=S)NC(=O)C2CCCCC2)c(Br)c1,–,"inconclusive: 4.61 µM [activator, partial curve, poor fit]"
Clc1ccc(C2=NNC(=NCC3CCCO3)SC2)cc1 (centres undefined),–,"inconclusive: 0.411 µM [activator, full curve, poor fit]"
CCN(CC)C(=O)CSC(=Nc1ccccc1F)NC#N,–,active: 14.6 µM
Cc1ccc2c(c1)C(N1CCCC1=O)CC(c1ccco1)N2 (centres undefined),–,"inconclusive: 18.4 µM [activator, partial curve, poor fit]"
Cc1ccc(NC(=O)c2ccc(OC(=O)C(C)Oc3ccc(Cl)cc3C)cc2)cc1 (centres undefined),–,"inconclusive: 36.6 µM [activator, partial curve, poor fit]"
NC(=O)c1cc(Cl)ccc1OCC(=O)Nc1ccc2c(c1)OCO2,–,"inconclusive: 0.58 µM [activator, partial curve, poor fit]"
Cc1c(C(=O)Nc2nc3ccccc3[nH]2)oc2ccccc12,–,"inconclusive: 1.16 µM [activator, full curve, poor fit]"
Fc1cc(NCc2ccccc2)nc(NCc2ccccc2)n1,–,"inconclusive: 29.1 µM [activator, single point]"
Cc1ccc2nc(-c3ccc(NC(=O)CCN4C(=O)c5ccccc5C4=O)cc3)sc2c1,–,"inconclusive: 0.092 µM [activator, full curve, poor fit]"
CC(C)(C)Nc1ncnc2c1cnn2-c1ccccc1,–,"inconclusive: 0.103 µM [activator, full curve, poor fit]"
CC(=O)c1cccc(NS(=O)(=O)N(C)C)c1,inactive: -1.04%,–
CN(c1ccc(C(=O)COC(=O)C2CC2)cc1)S(C)(=O)=O,–,"inconclusive: 29.1 µM [activator, single point]"
O=C(COc1ccc(Cl)cc1Cl)Nc1ccc(Cl)cn1,–,"inconclusive: 0.184 µM [activator, full curve, poor fit]"
Cc1ccc(NC(=O)/C(Cl)=C/c2ccccc2)cc1C,–,active: 2.06 µM

# Nine compounds out of the list, sorted by length of the SMILES, smallest number first.
SMILES,activation,Potency
CC(C)c1ccc(NC(=S)NN2CCOCC2)cc1,–,"inconclusive: 46.1 µM [activator, single point]"
Cc1ccc(NC(=O)/C(Cl)=C/c2ccccc2)cc1C,–,active: 2.06 µM
Cc1ccc2c(c1)C(N1CCCC1=O)CC(c1ccco1)N2 (centres undefined),–,"inconclusive: 18.4 µM [activator, partial curve, poor fit]"
Cc1c(C(=O)Nc2nc3ccccc3[nH]2)oc2ccccc12,–,"inconclusive: 1.16 µM [activator, full curve, poor fit]"
NC(=O)c1cc(Cl)ccc1OCC(=O)Nc1ccc2c(c1)OCO2,–,"inconclusive: 0.58 µM [activator, partial curve, poor fit]"
CCC(=O)Nc1cccc(NC(=S)NC(=O)c2ccc(Cl)cc2)c1,–,"inconclusive: 5.8 µM [activator, single point]"
COc1ccc([N+](=O)[O-])cc1NC(=O)CSCc1ccc(Br)cc1,inactive: -26%,–
Cc1ccc(NC(=O)c2ccc(OC(=O)C(C)Oc3ccc(Cl)cc3C)cc2)cc1 (centres undefined),–,"inconclusive: 36.6 µM [activator, partial curve, poor fit]"
CC(C)[C@H](NC(=O)c1ccc(Cl)cc1Cl)C(=O)NNc1cccc(C(=O)O)c1,–,"inconclusive: 18.4 µM [activator, partial curve, poor fit]"

# Next records:

SMILES,activation,Potency
COc1ccc(CCNC(=O)/C=C/c2ccc(S(=O)(=O)N3CCOCC3)cc2)cc1,inactive: 0.521%,–
O=C(CCS(=O)(=O)c1ccccc1)Nc1ccc(-c2nc3ccccc3s2)cc1,–,active: 0.651 µM
COc1ccc(N2COC3c4cccc5cccc(c45)C32)cc1 (centres undefined),–,"inconclusive: 46.1 µM [activator, single point]"
CCOC(=S)SCC(=O)Nc1nc(-c2ccc(Br)cc2)cs1,–,"inconclusive: 36.6 µM [activator, partial curve, poor fit]"
COc1cc(/C=C/C(=O)N2C(=O)c3cccc(N)c3C2=O)cc(OC)c1OC,–,"inconclusive: 29.1 µM [activator, single point]"
CC1=CN2C(=N)/C(=C/c3ccc(C)o3)C(=O)N=C2S1,–,"inconclusive: 0.13 µM [activator, full curve]"
Cc1cccnc1NC(=O)c1ccc([N+](=O)[O-])o1,–,"inconclusive: 29.1 µM [activator, single point]"
Cc1nnc(SCC(=O)N2CCOCC2)c2ccccc12,–,"inconclusive: 36.6 µM [activator, single point]"
CC(=O)Nc1sc(N/N=C\c2ccccc2F)nc1-c1cccs1,–,"inconclusive: 18.4 µM [activator, partial curve, poor fit]"
Cc1ccc(NC(=O)NC(=O)CN2CCC(C(N)=O)CC2)c(C)c1,–,"inconclusive: 36.6 µM [activator, single point]"
Cc1ccc2c(c1)c(C)c(C)n2CC(O)Cn1nnc2ccccc21 (centres undefined),–,"inconclusive: 20.6 µM [activator, single point]"
Cc1nn(-c2ccccc2)c(/N=C/c2ccccc2O)c1-c1ccccc1,–,"inconclusive: 36.6 µM [activator, single point]"
CCOc1cccc(-c2nc3cc(C)ccc3o2)c1,–,"inconclusive: 2.06 µM [activator, partial curve, poor fit]"
CCOC(=O)c1ccc(N2Cc3ccccc3C2=NC(=O)c2cccs2)cc1,–,"inconclusive: 18.4 µM [activator, partial curve, poor fit]"
CC(=O)N/C(=C/c1ccc2c(c1)OCO2)C(=O)Nc1ccccc1,inactive: 2.08%,–
Cc1ccc(NC(=O)COc2ccc3c(c2)OCO3)c(Cl)c1,–,"inconclusive: 2.59 µM [activator, full curve, poor fit]"
Cc1cc(C)cc(NC(=O)CSc2nnc(-c3ccccc3C)o2)c1,inactive: 35.9%,–
C=CCNC(=S)N/N=C(\C)c1ccccn1,–,active: 6.51 µM
CCCSc1ccc2nc(-c3ccccc3)cn2c1,–,active: 0.206 µM
